Here are results for one substance from paper PMC12881522.

These are yes or no findings as the source states them, for the method shown. Binding seen in cells or lysates may run through a third protein. Binding can be weak; no strength is given. Sequences can lack the tags named with a protein.

For the assay, the target named is T1, spGFP1-10-ZIG-8 (Zwei IG domain protein-8), knock-in allele spgfp1-10::zig-8 (C. elegans) (UniProt G5ED00).
T1 sequence: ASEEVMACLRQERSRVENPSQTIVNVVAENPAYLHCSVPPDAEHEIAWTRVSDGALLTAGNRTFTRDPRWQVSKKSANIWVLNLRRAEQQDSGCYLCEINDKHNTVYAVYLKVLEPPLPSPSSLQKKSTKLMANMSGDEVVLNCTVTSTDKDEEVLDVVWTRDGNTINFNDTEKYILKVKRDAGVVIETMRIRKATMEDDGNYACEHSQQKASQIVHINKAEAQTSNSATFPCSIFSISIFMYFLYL
As to the kind of experiment: split reporter; GRASP (GFP Reconstruction Across Synaptic Partners) in a spgfp11::rig-5 and spgfp1-10::zig-8 double knock-in C. elegans strain; live spinning disk imaging of the ventral nerve cord; auxin treatment to degrade ACR-16 in muscle.

On to “spGFP11-RIG-5 (neuRonal IG CAM-5), knock-in allele spgfp11::rig-5 (C. elegans)”, for which the binding entry is reported as “binds”.
